Results published in US12128023B2, “Pharmaceutical composition containing B-lapachone as active ingredient for prevention or treatment of cholestatic liver disease” (CUROME BIOSCIENCES CO., LTD., priority 2020, dated 2024).
For at least one compound, name, drawing or mass did not settle the structure.

System: Poly I:C-induced cholestatic liver disease animal models
Experiment: Treatment effect in Poly I:C-induced primary biliary cirrhosis (PBC) mouse animal models
Type: in vivo, C57BL/6 male mice
Conditions: positive control ursodeoxycholic acid 100 mg/kg in diet 8 weeks
Experimental: Of cholestatic liver diseases, primary biliary cirrhosis (PBC) may be introduced to a similar state by using a viral RNA mimic and the Toll-like receptor polyinosinic-polycytidylic acid (Poly I:C). After 8-week-old C57BL/6 male mice (Samtako, Korea) were divided into each group (=6), each experimental group excluding a normal group was intraperitoneally administered 5 mg/kg Poly I:C twice a week for 8 weeks. Thereafter, the mice were fed a diet with control (vehicle), β-lapachone 40 mg/kg, β-lapachone 80 mg/kg, and positive control ursodeoxycholic acid 100 mg/kg and obeticholic acid 30 mg/kg for 8 weeks. On the 16th week of treatment, the experiment was ended, and the mice were sacrificed and then the blood was collected from the heart.

C[C@H](CCC(=O)O)[C@H]1CC[C@H]2[C@@H]3[C@@H](O)C[C@@H]4C[C@H](O)CC[C@]4(C)[C@H]3CC[C@]12C [UDCA, ursodeoxycholic acid, reference compound]
inhibited: ALP in the blood | ALT in the blood | AST in the blood
